Laboratory results published in PMC5755467.
These are yes or no findings as the source states them, for the method shown. In cells and extracts the contact can be indirect. Binding can be weak; no strength is given.

Chains of the proteins cited; added tags and fusions are not shown. Lines headed by an entry give the natural chain unless they say otherwise; changes in a name come on top.
UniProt Q92831: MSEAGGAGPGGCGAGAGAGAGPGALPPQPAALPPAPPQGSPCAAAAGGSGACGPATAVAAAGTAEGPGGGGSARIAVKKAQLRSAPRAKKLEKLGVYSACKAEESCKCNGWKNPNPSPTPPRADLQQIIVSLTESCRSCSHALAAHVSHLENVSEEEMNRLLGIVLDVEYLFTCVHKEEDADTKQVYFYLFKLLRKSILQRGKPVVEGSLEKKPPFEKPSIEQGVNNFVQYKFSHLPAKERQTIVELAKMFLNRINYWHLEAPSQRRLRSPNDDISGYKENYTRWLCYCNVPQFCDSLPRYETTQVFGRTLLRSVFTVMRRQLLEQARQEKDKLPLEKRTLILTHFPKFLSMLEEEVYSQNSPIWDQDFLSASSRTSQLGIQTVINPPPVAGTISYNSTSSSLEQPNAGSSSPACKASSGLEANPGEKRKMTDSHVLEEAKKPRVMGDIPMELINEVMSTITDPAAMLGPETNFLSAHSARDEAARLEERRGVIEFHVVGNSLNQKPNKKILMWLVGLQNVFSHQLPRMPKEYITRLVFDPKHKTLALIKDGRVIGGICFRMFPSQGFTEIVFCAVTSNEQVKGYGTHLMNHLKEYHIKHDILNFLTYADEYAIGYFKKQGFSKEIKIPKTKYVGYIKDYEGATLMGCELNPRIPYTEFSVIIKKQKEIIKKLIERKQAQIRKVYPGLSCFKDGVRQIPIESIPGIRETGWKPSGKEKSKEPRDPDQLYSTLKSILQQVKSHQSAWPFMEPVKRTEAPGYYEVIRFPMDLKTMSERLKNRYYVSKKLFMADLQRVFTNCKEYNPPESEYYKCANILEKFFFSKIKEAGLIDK

Target: FLAG-PCAF-ΔHAT (UniProt Q92831)
Test: co-IP; whole cell extracts of FLAG-PCAF or PCAF-ΔHAT-transfected cells IP-ed with anti-FLAG; blotted with anti-FLAG and anti-Lin28B (endogenous Lin28B); IP with IgG as control

binding: binds
B1: Lin28B (endogenous) (protein, UniProt Q6ZN17 1-250)
chain: MAEGGASKGGGEEPGKLPEPAEEESQVLRGTGHCKWFNVRMGFGFISMINREGSPLDIPVDVFVHQSKLFMEGFRSLKEGEPVEFTFKKSSKGLESIRVTGPGGSPCLGSERRPKGKTLQKRKPKGDRCYNCGGLDHHAKECSLPPQPKKCHYCQSIMHMVANCPHKNVAQPPASSQGRQEAESQPCTSTLPREVGGGHGCTSPPFPQEARAEISERSGRSPQEASSTKSSIAPEEQSKKGPSVQKRKKT
